Reference: PMC7819943, “Rice protein-binding microarrays: a tool to detect cis-acting elements near promoter regions in rice”
Some of the results follow.

By UniProt entry, the sequences of proteins in these tests, tags left out.
UniProt Q0JBA9, entry or part of it: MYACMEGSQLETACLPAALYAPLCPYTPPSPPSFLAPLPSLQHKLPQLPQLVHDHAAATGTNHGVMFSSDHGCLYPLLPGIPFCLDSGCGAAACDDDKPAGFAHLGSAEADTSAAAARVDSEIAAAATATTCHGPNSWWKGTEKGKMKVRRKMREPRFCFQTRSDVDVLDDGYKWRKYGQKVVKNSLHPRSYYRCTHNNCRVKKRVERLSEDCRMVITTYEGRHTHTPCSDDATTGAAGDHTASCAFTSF

Each sequence was assayed against OsWRKY34 (Oryza sativa, UniProt Q0JBA9 1-250) (assay: protein-binding microarray (RPBM); PBS, 2% BSA, 51.3 ng/ul salmon testes DNA, 50 uM zinc acetate, 200 nM TF, 25 C, 1 h; high values mean tight binding). Settings: protein: recombinant; tags: N-terminal polyhistidine and DsRed monomer fusion (pET32a); label: CyDye5-dUTP incorporated in the synthesized complementary strand; 3' TTTTT single-stranded linker to array surface; dsDNA, one strand shown.
How it was run: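 Polyhistidine-tagged DsRed fusions of transcription factors, joined at the N-terminus, were expressed in E. coli BL21-CodonPlus and isolated on Ni–NTA. They were incubated at 200 nM for 1 h at 25 °C on a custom Agilent array, double-stranded and BSA-blocked, in PBS with 2% BSA, salmon testes DNA and 50 µM zinc acetate. The binding signal is per-feature fluorescence intensity (arbitrary units) read on an Axon 4000B scanner after washing.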
In the case of “GTGCTCTGCCTGACGAACTTTTGCACCATGTCATGACATTCGGAGTCACCTAGTGCAG”, the binding signal is reported as 9840 fluorescence intensity (a.u.).
With “TAGCCTCATGTAAGTGCGCATCATATTTGTATTATTTTTCCGGAGTCACCTAGTGCAG” the binding signal was 8530 fluorescence intensity (a.u.).
With “CTTTGGTTTTATCTTCACTCCAGTCAATGACACCTCTACCCGGAGTCACCTAGTGCAG” the binding signal was 12500 fluorescence intensity (a.u.).
“TTTTTTTCGCATCCGCTTTTTTCCGCCGTAACAGATGGACCGGAGTCACCTAGTGCAG” was tested, and the binding signal was 12900 fluorescence intensity (a.u.).
“TCGACGGCATCATGGAGTGCGCCGCTTTCTCGTCCTCTACCGGAGTCACCTAGTGCAG” was tested, and the binding signal was 8950 fluorescence intensity (a.u.).
“GGACCTCAACCTTTCCTGACCTATCCTCTTTTCCCACTCACGGAGTCACCTAGTGCAG” was tested, and the binding signal was 10800 fluorescence intensity (a.u.).
For “TAGCTTTCGTTGAGTTGACTTATTATTAGTCATTCCAATTCGGAGTCACCTAGTGCAG”, the binding signal was 12700 fluorescence intensity (a.u.).
“GTAGTTTTGACTTTTTTTTAAGTCAAACTTCTTCAGATTTCGGAGTCACCTAGTGCAG” was tested, and the binding signal was 10700 fluorescence intensity (a.u.).
With “TTTGGTTGCTTGCCTTCTTTATCGGCAAAATTTGCTATAGCGGAGTCACCTAGTGCAG” the binding signal was 8970 fluorescence intensity (a.u.).
With “ACTCCGCTCAGCTCTAGCTTCCCCACCACCACCACCACCCCGGAGTCACCTAGTGCAG” the binding signal was 10700 fluorescence intensity (a.u.).
“CCATTGTGTCATTCAGTTATTGTTACTTTCAGTTGTTCTACGGAGTCACCTAGTGCAG” was tested, and the binding signal was 12200 fluorescence intensity (a.u.).
“CGGTATTGGATTGATCAATCATCGTCACCTCGTTTTGCTTCGGAGTCACCTAGTGCAG” was tested, and the binding signal was 8680 fluorescence intensity (a.u.).
“CACACTATATTCCTGGTCCATTTTTCGACGAAAATCTACACGGAGTCACCTAGTGCAG” was tested, and the binding signal was 9140 fluorescence intensity (a.u.).
In the case of “TTTTAGTCTTAATTATAGCTTTTCTTTTTACTTGCATATACGGAGTCACCTAGTGCAG”, the binding signal is reported as 9120 fluorescence intensity (a.u.).
With “CGTTTTCATCACTGGATGCGTGTCTACATCCACGGTTTTTCGGAGTCACCTAGTGCAG” the binding signal was 13100 fluorescence intensity (a.u.).
In the case of “CGCCGAGCATCTTCGACGTCGTCTCCTCCATCACGCCGATCGGAGTCACCTAGTGCAG”, the binding signal is reported as 8240 fluorescence intensity (a.u.).
With “GCCAAGCCACCCACCCACGCCCCGACGCCATTAATTTCCCCGGAGTCACCTAGTGCAG” the binding signal was 9070 fluorescence intensity (a.u.).
With “TTGCCGCGGGTTTGCTCCAAAATTTTGTGTTCGTACGCTTCGGAGTCACCTAGTGCAG” the binding signal was 13600 fluorescence intensity (a.u.).
For “TTTGGTTTACAGTCTACATTTGCTCAACATCCATCTTTCTCGGAGTCACCTAGTGCAG”, the binding signal was 9600 fluorescence intensity (a.u.).
With “TTGCAGTGTTGATCGAGTCGTGGGAGTGCGTGGTGTGCGTCGGAGTCACCTAGTGCAG” the binding signal was 8800 fluorescence intensity (a.u.).
In the case of “TATATATATATATATATATATATATATATATAAGGTTTGACGGAGTCACCTAGTGCAG”, the binding signal is reported as 17300 fluorescence intensity (a.u.).
With “CATCGTTTTACGTGAAACACTTTTAGTTTGCATTCATCTTCGGAGTCACCTAGTGCAG” the binding signal was 9600 fluorescence intensity (a.u.).
In the case of “TGTAGTGTTACATCACATATTAATACATCTTCTTAATTTTCGGAGTCACCTAGTGCAG”, the binding signal is reported as 8570 fluorescence intensity (a.u.).
“AATCGAATTAATTACTGCTCCGGTCAAACTTAAGCACGCACGGAGTCACCTAGTGCAG” was tested, and the binding signal was 8420 fluorescence intensity (a.u.).
“ATAAAGCAGTGATGAATATTCAGAGTTTTTTGCCCTCTAACGGAGTCACCTAGTGCAG” was tested, and the binding signal was 8170 fluorescence intensity (a.u.).
“AATTACACTACGATTATATTATAATTACATTTGTCAAATTCGGAGTCACCTAGTGCAG” was tested, and the binding signal was 9220 fluorescence intensity (a.u.).
For “GTAGCTCACTTTTTTCTCTCGCTCCTTCACCTAAGCACAACGGAGTCACCTAGTGCAG”, the binding signal was 12600 fluorescence intensity (a.u.).
With “GGCCTCGTCTACCCATCCGGCCCAGTCAATGTCGCAGGGGCGGAGTCACCTAGTGCAG” the binding signal was 10100 fluorescence intensity (a.u.).
For “GCTCGGTGCAGCTAGGTGTGTCTTGGTTGGTGATCCACAACGGAGTCACCTAGTGCAG”, the binding signal was 8290 fluorescence intensity (a.u.).
With “TGCCCAATTGCTCACCGAAACAGCAGCAGTCACAACCTGTCGGAGTCACCTAGTGCAG” the binding signal was 8360 fluorescence intensity (a.u.).
With “ATAAGCATCAAACTTTACAGTTCTTTGTTGTATCATGTATCGGAGTCACCTAGTGCAG” the binding signal was 9060 fluorescence intensity (a.u.).
With “TGTATAGTTTGTTCAGTCCCTACTATTAGTTCTTCTTGGACGGAGTCACCTAGTGCAG” the binding signal was 8490 fluorescence intensity (a.u.).
With “TTCCAACCCCACATTTCATCCTCGATCTTTCTGGTTTGCCCGGAGTCACCTAGTGCAG” the binding signal was 8700 fluorescence intensity (a.u.).
For “ATCGGCTTTCACCCTTACACCGTTACACGTTGCACTGCACCGGAGTCACCTAGTGCAG”, the binding signal was 8192 fluorescence intensity (a.u.).
In the case of “ACGTATTTTGTTCATTATATAGTTTTGTTTTCAGTTTTTCCGGAGTCACCTAGTGCAG”, the binding signal is reported as 14400 fluorescence intensity (a.u.).
In the case of “CATTTCATCATCCGGAAGCAAATCTGTGGCGATAACCTGTCGGAGTCACCTAGTGCAG”, the binding signal is reported as 8080 fluorescence intensity (a.u.).
“TGGGTTGCTGCATTGTTGATATTTTAACTACTTTATAAACCGGAGTCACCTAGTGCAG” was tested, and the binding signal was 8490 fluorescence intensity (a.u.).
With “TCCTCTCATCCTATTTTCTGTGTGCATTGTGTCTGTGACACGGAGTCACCTAGTGCAG” the binding signal was 9240 fluorescence intensity (a.u.).
For “AGCCAGCAGCCTCATCATCGACAGCTGACCACCGTTTTGCCGGAGTCACCTAGTGCAG”, the binding signal was 8310 fluorescence intensity (a.u.).
In the case of “GTTATAATATTTGTCAAACAGAGGTCCAGTATTTTGCATCCGGAGTCACCTAGTGCAG”, the binding signal is reported as 8060 fluorescence intensity (a.u.).
In the case of “CCACATAATTCACATAATATTTCTATATTTATTCATCATTCGGAGTCACCTAGTGCAG”, the binding signal is reported as 9250 fluorescence intensity (a.u.).
With “TGGCATGGTTCCAATTTCGTGAATAGTAATGGTATATCTCCGGAGTCACCTAGTGCAG” the binding signal was 8290 fluorescence intensity (a.u.).
